Assay results reported in the supplement of paper PMC10849652.
Some of the results follow.

Chains of the proteins cited; added tags and fusions are not shown. Lines headed by an entry give the natural chain unless they say otherwise; changes in a name come on top.
UniProt Q9P0J1: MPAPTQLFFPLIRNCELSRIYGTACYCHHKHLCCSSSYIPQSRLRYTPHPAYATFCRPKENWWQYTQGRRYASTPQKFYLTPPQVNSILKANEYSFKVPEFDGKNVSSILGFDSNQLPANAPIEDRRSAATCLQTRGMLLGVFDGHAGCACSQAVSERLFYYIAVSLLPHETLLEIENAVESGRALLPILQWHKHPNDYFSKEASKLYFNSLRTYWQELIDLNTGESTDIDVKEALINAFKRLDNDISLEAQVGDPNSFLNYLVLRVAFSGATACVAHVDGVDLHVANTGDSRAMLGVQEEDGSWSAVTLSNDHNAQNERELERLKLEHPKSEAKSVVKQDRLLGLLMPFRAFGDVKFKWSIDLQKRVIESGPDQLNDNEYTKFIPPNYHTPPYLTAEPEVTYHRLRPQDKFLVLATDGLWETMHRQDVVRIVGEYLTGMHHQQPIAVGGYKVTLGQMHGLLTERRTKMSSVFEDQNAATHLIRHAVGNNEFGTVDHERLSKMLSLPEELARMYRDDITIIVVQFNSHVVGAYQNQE
UniProt Q15004: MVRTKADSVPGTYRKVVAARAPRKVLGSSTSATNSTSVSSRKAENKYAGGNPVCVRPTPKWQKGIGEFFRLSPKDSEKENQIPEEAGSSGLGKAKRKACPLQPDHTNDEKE
UniProt Q15102: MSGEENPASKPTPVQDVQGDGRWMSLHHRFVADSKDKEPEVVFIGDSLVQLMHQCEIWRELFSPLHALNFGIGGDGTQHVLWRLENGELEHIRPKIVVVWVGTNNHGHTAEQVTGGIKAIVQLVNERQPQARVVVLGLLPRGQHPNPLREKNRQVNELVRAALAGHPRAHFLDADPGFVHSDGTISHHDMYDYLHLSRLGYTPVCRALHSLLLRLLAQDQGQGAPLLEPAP
UniProt Q6P996: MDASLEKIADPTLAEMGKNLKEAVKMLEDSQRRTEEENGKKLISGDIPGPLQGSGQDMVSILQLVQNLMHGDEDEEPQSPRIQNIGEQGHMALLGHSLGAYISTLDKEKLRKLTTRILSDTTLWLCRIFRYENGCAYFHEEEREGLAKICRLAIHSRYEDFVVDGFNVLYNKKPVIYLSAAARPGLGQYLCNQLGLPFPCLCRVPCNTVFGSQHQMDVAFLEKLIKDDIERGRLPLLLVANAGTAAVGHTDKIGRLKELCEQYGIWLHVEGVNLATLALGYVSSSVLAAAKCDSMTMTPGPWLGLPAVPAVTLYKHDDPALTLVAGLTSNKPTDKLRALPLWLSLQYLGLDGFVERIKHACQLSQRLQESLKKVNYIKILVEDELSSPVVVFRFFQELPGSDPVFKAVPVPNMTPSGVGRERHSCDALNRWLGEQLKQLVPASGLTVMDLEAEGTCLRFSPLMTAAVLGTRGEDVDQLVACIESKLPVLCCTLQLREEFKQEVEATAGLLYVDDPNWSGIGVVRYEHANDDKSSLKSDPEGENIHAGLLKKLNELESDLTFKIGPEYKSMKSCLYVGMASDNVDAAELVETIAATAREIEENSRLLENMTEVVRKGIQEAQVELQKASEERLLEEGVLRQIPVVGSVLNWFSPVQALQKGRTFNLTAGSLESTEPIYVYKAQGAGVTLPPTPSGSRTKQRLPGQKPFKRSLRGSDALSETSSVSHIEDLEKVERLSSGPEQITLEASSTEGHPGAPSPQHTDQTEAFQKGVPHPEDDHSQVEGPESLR
UniProt Q7L3T8: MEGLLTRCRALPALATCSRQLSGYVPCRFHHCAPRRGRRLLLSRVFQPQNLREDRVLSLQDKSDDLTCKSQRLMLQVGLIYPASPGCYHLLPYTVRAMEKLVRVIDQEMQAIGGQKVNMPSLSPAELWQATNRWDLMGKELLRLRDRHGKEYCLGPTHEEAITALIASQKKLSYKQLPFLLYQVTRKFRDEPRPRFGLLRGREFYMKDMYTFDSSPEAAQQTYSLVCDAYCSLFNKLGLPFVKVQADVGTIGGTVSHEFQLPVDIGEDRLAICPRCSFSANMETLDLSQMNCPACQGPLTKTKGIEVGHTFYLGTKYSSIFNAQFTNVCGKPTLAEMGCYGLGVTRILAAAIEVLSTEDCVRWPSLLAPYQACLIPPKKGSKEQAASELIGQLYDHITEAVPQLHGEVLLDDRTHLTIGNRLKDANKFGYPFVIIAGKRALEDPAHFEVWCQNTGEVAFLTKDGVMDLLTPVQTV
UniProt P13667: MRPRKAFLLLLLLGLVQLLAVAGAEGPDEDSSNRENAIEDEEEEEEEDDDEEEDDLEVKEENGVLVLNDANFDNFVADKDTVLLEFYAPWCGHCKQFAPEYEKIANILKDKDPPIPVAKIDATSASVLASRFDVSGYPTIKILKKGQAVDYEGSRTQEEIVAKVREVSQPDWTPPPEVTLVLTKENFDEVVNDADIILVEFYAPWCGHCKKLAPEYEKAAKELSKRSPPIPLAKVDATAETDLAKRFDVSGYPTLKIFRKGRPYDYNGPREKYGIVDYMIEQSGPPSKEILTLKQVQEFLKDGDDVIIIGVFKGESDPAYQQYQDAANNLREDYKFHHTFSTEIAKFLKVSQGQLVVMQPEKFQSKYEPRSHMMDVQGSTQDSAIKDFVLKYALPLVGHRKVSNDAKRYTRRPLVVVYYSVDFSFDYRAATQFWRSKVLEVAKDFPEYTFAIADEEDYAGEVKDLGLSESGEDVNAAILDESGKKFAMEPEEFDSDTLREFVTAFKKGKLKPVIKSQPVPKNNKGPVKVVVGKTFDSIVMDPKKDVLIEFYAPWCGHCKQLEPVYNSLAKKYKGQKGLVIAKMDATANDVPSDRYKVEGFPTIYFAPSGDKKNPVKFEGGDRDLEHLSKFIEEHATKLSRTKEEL
UniProt Q96GU1: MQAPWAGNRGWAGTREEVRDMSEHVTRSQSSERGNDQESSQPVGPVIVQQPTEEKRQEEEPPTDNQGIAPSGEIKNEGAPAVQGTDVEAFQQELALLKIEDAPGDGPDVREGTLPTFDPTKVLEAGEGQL
UniProt Q9HBH1: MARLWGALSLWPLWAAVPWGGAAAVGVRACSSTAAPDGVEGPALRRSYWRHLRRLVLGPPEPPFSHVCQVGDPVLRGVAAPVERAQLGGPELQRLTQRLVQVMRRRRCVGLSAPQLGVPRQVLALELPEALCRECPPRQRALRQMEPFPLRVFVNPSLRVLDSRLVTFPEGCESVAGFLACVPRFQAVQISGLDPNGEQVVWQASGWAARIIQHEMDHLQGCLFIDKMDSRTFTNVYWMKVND
UniProt O75459: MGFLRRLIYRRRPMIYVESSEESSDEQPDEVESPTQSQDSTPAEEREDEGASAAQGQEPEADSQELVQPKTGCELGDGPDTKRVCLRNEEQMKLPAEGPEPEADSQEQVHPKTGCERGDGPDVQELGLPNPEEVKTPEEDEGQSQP
UniProt Q9BTK6, whole entry, looked up: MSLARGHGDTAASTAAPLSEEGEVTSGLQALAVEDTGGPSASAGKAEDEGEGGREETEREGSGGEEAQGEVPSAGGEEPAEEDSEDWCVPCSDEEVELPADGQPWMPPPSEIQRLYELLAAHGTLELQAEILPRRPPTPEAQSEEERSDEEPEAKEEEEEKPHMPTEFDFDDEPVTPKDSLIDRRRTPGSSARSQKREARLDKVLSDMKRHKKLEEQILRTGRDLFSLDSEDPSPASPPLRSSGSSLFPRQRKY
UniProt Q96HC4: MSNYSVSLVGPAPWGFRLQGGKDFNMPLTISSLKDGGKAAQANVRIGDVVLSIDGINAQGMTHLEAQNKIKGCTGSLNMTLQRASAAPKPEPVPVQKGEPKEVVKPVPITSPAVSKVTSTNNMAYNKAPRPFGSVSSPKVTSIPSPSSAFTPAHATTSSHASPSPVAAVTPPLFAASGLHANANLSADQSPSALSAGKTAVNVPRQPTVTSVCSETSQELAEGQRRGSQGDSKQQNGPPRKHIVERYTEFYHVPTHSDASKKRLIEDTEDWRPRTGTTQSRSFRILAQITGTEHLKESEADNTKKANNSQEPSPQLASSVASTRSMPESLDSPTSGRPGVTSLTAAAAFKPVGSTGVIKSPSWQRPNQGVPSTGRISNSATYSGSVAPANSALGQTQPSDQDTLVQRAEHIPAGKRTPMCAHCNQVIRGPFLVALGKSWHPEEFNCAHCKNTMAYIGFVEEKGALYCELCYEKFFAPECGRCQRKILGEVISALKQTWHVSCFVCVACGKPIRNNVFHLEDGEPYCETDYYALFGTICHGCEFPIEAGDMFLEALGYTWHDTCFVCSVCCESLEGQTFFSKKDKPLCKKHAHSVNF
UniProt P56645: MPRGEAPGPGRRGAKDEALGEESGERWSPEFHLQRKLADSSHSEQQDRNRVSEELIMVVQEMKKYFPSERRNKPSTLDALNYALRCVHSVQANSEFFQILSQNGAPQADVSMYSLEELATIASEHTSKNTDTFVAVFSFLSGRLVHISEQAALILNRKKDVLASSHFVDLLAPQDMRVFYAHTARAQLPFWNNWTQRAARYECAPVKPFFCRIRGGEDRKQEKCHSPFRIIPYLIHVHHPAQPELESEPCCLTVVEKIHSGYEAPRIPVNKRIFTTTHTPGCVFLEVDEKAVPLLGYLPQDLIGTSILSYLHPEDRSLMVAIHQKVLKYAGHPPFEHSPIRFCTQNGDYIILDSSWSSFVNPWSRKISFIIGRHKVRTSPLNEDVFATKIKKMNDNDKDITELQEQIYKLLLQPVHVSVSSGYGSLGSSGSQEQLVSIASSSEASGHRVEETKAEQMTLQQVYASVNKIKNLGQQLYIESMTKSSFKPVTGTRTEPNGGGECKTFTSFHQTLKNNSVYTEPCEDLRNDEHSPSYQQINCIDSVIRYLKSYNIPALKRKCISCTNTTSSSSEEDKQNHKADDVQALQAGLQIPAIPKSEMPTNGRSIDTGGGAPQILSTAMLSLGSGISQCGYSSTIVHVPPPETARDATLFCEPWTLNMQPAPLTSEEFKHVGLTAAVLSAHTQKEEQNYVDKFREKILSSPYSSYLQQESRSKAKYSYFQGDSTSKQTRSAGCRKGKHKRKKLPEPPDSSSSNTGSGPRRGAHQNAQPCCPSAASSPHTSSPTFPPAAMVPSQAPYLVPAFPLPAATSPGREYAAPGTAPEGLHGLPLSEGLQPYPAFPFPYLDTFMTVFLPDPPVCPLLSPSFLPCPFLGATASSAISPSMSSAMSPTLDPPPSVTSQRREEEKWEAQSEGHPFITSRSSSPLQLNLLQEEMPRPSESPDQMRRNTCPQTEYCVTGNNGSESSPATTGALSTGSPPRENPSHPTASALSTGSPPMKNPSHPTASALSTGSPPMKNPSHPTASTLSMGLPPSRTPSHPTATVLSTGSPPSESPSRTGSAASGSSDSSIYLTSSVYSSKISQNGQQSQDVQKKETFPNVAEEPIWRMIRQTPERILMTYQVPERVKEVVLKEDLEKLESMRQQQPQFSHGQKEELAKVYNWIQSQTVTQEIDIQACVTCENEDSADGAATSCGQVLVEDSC
UniProt Q8NBP7, whole entry, looked up: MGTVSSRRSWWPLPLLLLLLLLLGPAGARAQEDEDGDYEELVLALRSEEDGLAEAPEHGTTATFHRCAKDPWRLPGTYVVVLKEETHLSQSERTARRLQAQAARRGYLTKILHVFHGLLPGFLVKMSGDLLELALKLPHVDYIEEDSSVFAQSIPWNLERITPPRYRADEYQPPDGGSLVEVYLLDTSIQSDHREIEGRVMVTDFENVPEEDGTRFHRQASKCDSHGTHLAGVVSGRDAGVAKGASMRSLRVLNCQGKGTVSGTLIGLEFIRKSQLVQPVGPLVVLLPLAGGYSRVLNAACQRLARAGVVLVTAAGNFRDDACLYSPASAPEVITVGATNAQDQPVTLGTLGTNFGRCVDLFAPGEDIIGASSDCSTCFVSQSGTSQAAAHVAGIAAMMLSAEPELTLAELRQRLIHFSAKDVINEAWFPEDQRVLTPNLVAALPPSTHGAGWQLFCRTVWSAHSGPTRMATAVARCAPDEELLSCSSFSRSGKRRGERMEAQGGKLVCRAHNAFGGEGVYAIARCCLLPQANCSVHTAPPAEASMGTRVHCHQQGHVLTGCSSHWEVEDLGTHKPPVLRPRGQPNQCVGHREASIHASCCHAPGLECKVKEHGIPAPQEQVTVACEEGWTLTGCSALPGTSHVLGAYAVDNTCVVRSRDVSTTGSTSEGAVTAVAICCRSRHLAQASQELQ
UniProt O00330, whole entry, looked up: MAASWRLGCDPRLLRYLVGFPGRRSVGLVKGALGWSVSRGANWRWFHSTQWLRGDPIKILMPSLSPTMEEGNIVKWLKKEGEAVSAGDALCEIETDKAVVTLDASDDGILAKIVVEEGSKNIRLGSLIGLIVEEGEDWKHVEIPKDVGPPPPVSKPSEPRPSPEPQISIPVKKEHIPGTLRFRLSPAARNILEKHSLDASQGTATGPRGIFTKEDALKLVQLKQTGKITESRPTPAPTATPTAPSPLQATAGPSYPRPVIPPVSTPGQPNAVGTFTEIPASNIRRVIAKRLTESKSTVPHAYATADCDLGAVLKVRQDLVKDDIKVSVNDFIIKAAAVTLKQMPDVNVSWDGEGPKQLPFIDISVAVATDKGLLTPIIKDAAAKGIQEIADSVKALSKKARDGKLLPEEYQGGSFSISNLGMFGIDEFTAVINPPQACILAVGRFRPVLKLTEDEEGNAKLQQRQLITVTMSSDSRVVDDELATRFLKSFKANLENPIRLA

Legend:
Assay in all cases: log2 fold change, soluble protein after heating vs DMSO (PISA); higher = thermal stabilisation; K562 cells, 10 uM, 30 min; active = over 0.2 and 3.5 SD of the protein, either way, in both replicates (recomputed)
[1] = compound: C1=CC=C(C=C1)[C@H](COC2=CC3=C(C=C2)NC(=O)N3)NC(=O)C4=CC=CN(C4=O)CC5=CC(=C(C=C5)F)F
How it was run: (§1)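 K562 cells at 2×10^6 cells/mL were exposed to 10 μM compound for 30 min, then aliquots were heated for 3 min across 48°C-58°C, pooled, and extracted in PBS containing 0.5% NP-40 at 4°C. The supernatant after 21,000xg for 90 min was taken as soluble protein and measured by TMTpro 16plex LC-MS/MS with channel sums equalised. Thermal stability is reported relative to control samples, with values from duplicates. Fold changes are given on a log2 scale.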

[2] = compound: CC1=C(SC2=C1C(=N[C@H](C3=NN=C(N32)C)CC(=O)N)C4=CC=C(C=C4)Cl)C
How it was run: as §1

[3] = compound: CC1=C2C(=CC=C1)N=C(N(C2=O)C3=CC=CC=C3C)CN4C=NC5=C(N=CN=C54)N
How it was run: as §1

[4] = compound: Cc1sc2c(c1C)C(c1ccc(Cl)cc1)=N[C@@H](CC(=O)OC(C)(C)C)c1nnc(C)n1-2
How it was run: as §1

[5] = compound: c1ccc([C@@H]2C[C@H]2NC2CCNCC2)cc1
How it was run: as §1

Measured: log2 fold change

PDE2A (UniProt O00408)
inactive: [1] 0.079 | [2] 0.08 | [3] 0.16 | [4] -0.024 | [5] 0.065

PBK (UniProt Q96KB5)
inactive: [1] -0.06 | [2] 0.016 | [3] 0.067 | [4] 0.023 | [5] -0.016

PDP1 isoform 2 (UniProt Q9P0J1)
inactive: [1] -0.252

PCMTD1 (UniProt Q96MG8)
inactive: [1] 0.123

PCLAF (UniProt Q15004)
inactive: [1] 0.055 | [2] -0.022 | [3] -0.045 | [4] 0.02 | [5] 0.07

Two records picked at random from the list so far, as already listed:
PCMTD1 (UniProt Q96MG8)
inactive: [1] 0.123

PCLAF (UniProt Q15004)
inactive: [1] 0.055 | [2] -0.022 | [3] -0.045 | [4] 0.02 | [5] 0.07

Following part:

PDCD10 (UniProt Q9BUL8)
inactive: [1] -0.018 | [2] 0.026 | [3] 0.038 | [4] -0.01 | [5] -0.028

PAFAH1B3 (UniProt Q15102)
inactive: [1] -0.076 | [2] 0.139 | [3] 0.128 | [4] -0.132 | [5] -0.096

PCM1 isoform 5 (UniProt Q15154)
inactive: [1] 0.078 | [2] -0.118 | [3] 0.009 | [4] 0.043 | [5] 0.041

PEX1 (UniProt O43933)
inactive: [1] -0.037 | [2] 0.041 | [3] 0.008 | [4] -0.041 | [5] 0.035

PCNA (UniProt P12004)
inactive: [1] -0.006 | [2] 0.025 | [3] 0 | [4] -0.01 | [5] -0.007

PAK1 isoform 2 (UniProt Q13153)
inactive: [1] -0.152 | [2] 0.097 | [3] -0.113 | [4] -0.02 | [5] -0.092

PDS5B (UniProt Q9NTI5)
inactive: [1] -0.153 | [2] 0.029 | [3] 0.169 | [4] 0.233 | [5] -0.011

PECAM1 (UniProt P16284)
inactive: [1] 0.063 | [2] 0.138 | [3] 0.014 | [4] -0.06 | [5] 0.047

PDIA5 (UniProt Q14554)
inactive: [1] 0.044 | [2] -0.051 | [3] 0.01 | [4] -0.009 | [5] -0.05

PDZD8 (UniProt Q8NEN9)
inactive: [1] -0.01 | [2] 0.04 | [3] 0.043 | [4] -0.037 | [5] -0.008

PDE12 (UniProt Q6L8Q7)
inactive: [1] -0.003 | [2] 0.059 | [3] 0.12 | [4] -0.05 | [5] -0.094

PDE6C (UniProt P51160)
inactive: [1] -0.107 | [2] 0.052 | [3] 0.142 | [4] 0.015 | [5] 0.008

PALM3 (UniProt A6NDB9)
inactive: [1] 0.01 | [2] 0.029 | [3] -0.024 | [4] 0.025 | [5] 0.057

PDE6D (UniProt O43924)
inactive: [1] -0.053 | [2] 0.238 | [3] -0.004 | [4] -0.13 | [5] 0.017

PAFAH1B1 (UniProt P43034)
inactive: [1] -0.014 | [2] 0.047 | [3] 0.037 | [4] -0.011 | [5] -0.001

PACC1 (UniProt Q9H813)
inactive: [1] 0 | [2] 0.037 | [3] 0.092 | [4] 0.009 | [5] -0.058

PDXDC1 (UniProt Q6P996)
inactive: [1] -0.404 | [2] 0.068 | [3] 0.04 | [4] 0.192 | [5] -0.035

PDE4A (UniProt P27815)
inactive: [1] -0.11 | [2] 0.128 | [3] 0.102 | [4] -0.112 | [5] 0.201

PDSS2 (UniProt Q86YH6)
inactive: [1] -0.066 | [2] 0.052 | [3] 0.085 | [4] 0.005 | [5] 0.094

PDAP1 (UniProt Q13442)
inactive: [1] -0.054 | [2] 0.015 | [3] 0.018 | [4] 0.01 | [5] 0.055

PCK2 (UniProt Q16822)
inactive: [1] 0.051 | [2] 0.038 | [3] 0.057 | [4] 0.008 | [5] -0.038

PEX13 (UniProt Q92968)
inactive: [1] -0.064 | [2] 0.05 | [3] 0.078 | [4] -0.107 | [5] 0.001

PARS2 (UniProt Q7L3T8)
inactive: [1] 0.033 | [2] -0.008 | [3] 0.012 | [4] 0.04 | [5] 0.007

PDIA4 (UniProt P13667)
inactive: [1] 0.03 | [2] -0.024 | [3] -0.01 | [4] -0.013 | [5] -0.032

Quoted from the entries so far (two entries):
PAFAH1B3 (UniProt Q15102)
inactive: [1] -0.076 | [2] 0.139 | [3] 0.128 | [4] -0.132 | [5] -0.096

PCM1 isoform 5 (UniProt Q15154)
inactive: [1] 0.078 | [2] -0.118 | [3] 0.009 | [4] 0.043 | [5] 0.041

(list continues)

PAGE5 (UniProt Q96GU1)
inactive: [1] 0.02 | [2] -0.065 | [3] -0.073 | [4] -0.063 | [5] 0.072

PDF (UniProt Q9HBH1)
inactive: [1] 0.053 | [2] -0.009 | [3] 0.082 | [4] -0.008 | [5] 0.074

PBDC1 (UniProt Q9BVG4)
inactive: [1] -0.019 | [2] 0.058 | [3] 0.082 | [4] -0.01 | [5] -0.023

PBX2 (UniProt P40425)
inactive: [1] -0.052 | [2] 0.082 | [3] -0.011 | [4] 0.051 | [5] -0.016

PDXK (UniProt O00764)
inactive: [1] 0.007 | [2] -0.026 | [3] -0.013 | [4] 0.023 | [5] 0.027

PDRG1 (UniProt Q9NUG6)
inactive: [1] -0.032 | [2] 0.059 | [3] 0.006 | [4] 0.022 | [5] 0

PDCL3 (UniProt Q9H2J4)
inactive: [1] -0.003 | [2] 0.029 | [3] 0.016 | [4] -0.018 | [5] 0.008

PAGE1 (UniProt O75459)
inactive: [1] -0.017 | [2] -0.055 | [3] -0.104 | [4] 0.036 | [5] 0.073

PAGR1 (UniProt Q9BTK6)
inactive: [1] -0.03 | [2] -0.018 | [3] -0.076 | [4] 0.011 | [5] 0.075

PARL (UniProt Q9H300)
inactive: [1] 0.017 | [2] -0.017 | [3] 0.045 | [4] 0.028 | [5] 0.031

PCBP2 isoform 3 (UniProt Q15366)
inactive: [1] -0.051 | [2] 0.016 | [3] 0.055 | [4] -0.029 | [5] 0.005

PCGF2 (UniProt P35227)
inactive: [1] -0.046 | [2] 0.133 | [3] -0.015 | [4] 0.002 | [5] -0.05

PDLIM5 (UniProt Q96HC4)
inactive: [1] -0.03 | [2] 0.057 | [3] 0.027 | [4] -0.011 | [5] 0.003

PDCL (UniProt Q13371)
inactive: [1] 0.088 | [2] 0.102 | [3] 0.038 | [4] 0.013 | [5] -0.086

PDLIM7 (UniProt Q9NR12)
inactive: [1] -0.04 | [2] 0.044 | [3] 0.092 | [4] -0.023 | [5] -0.011

PER3 isoform 2 (UniProt P56645)
inactive: [1] 0.015 | [2] -0.008 | [3] 0.013 | [4] -0.003 | [5] 0.087

PCSK9 (UniProt Q8NBP7)
inactive: [1] 0.019 | [2] -0.062 | [3] -0.089 | [4] 0.111 | [5] -0.073

PDSS1 (UniProt Q5T2R2)
inactive: [1] -0.033 | [2] 0.031 | [3] 0.055 | [4] 0.024 | [5] -0.04

PCBP2 (UniProt F8VRH0)
inactive: [1] -0.033 | [2] -0.18 | [3] -0.013 | [4] 0.085 | [5] 0.026

PDHX (UniProt O00330)
inactive: [1] 0.128 | [2] -0.242 | [3] -0.054 | [4] -0.023 | [5] 0

PACS1 (UniProt Q6VY07)
inactive: [1] -0.02 | [2] 0.042 | [3] 0.033 | [4] 0.002 | [5] -0.014

PAGE4 (UniProt O60829)
inactive: [1] -0.014 | [2] 0.086 | [3] 0.216 | [4] -0.015 | [5] -0.047

PATL1 (UniProt Q86TB9)
inactive: [1] -0.019 | [2] -0.004 | [3] 0.095 | [4] 0 | [5] -0.021

PAICS (UniProt P22234)
inactive: [1] -0.022 | [2] 0.014 | [3] 0.017 | [4] 0.006 | [5] 0.005

PAFAH1B1 (UniProt I3L3N5)
inactive: [1] -0.077 | [2] 0.072 | [3] 0.192 | [5] 0.098

PCF11 (UniProt O94913)
inactive: [1] -0.319 | [2] -0.02 | [3] 0.068 | [5] 0.006
